Patent EP1897948A1 (ZymoGenetics, Inc., dated 2008)
No constants are given. Whether binding was seen depends on the method and setting. In cells and extracts the contact can be indirect. Some entries that bind do so weakly or less than the wild type. Where a sequence is shown, tags or fusion partners need not be part of it.

Molecular target: T1, untagged human Zcyto7 (human) (UniProt Q9UHF5)
T1 sequence (looked up): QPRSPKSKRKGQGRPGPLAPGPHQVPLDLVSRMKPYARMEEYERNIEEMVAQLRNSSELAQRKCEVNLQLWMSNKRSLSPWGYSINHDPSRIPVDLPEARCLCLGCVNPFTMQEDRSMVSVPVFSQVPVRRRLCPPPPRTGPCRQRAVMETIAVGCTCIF
Experiment: co-expression, then anti-EE affinity co-purification

- binding: binds
B1: Human Ztgfβ-9 protein (ligand)
chain: AGAPRAGRRPARPRGCADRPEELLEQLYGRLAAGVLSAFHHTLQLGPREQARNASCPAGGRPADRRFRPPTNLRSVSPWAYRISYDPARYPRYLPEAYCLCRGCLTGLFGEEDVRFRSAPVYMPTVVLRRTPACAGGRSVYTEAYVTIPVGCTCVPEPEKDADSINSSIDKQGAKLLLGPNDAPAGP
notes: Expressed in BHK cells without a tag and secreted into the medium; also called transforming growth factor beta-9
